Values of other authors in patent publication US20050222251A1, “Dual inhibition of cyclooxygenase-2 and carbonic anhydrase” (AMOREPACIFIC CORPORATION, priority 2004, published 2005).
For at least one compound, name, drawing or mass did not settle the structure.

System: intraocular pressure
Conditions: oral administration, hypertensive rabbits; cited from earlier work

Cc1ccc(-c2cc(C(F)(F)F)nn2-c2ccc(S(N)(=O)=O)cc2)cc1 [celecoxib]
effect on intraocular pressure: reduced intraocular pressure
